Results are given in words; binding and its absence hold for the method and conditions named. Some binding calls cover weakened binding; strength is not graded here. Tags and fused reporters may be left off the sequences shown.
Molecular target: mNeonGreen::PAR-3, endogenously tagged (C. elegans) (UniProt Q17353)
Assay: particle tracking with intensities calibrated to single molecules

binding: binds
B1: mNeonGreen::PAR-3, endogenously tagged (protein, UniProt Q17353 1-1379)
chain: MSASSTSSSSTSCPEGGEPSGSCKSSDEGESTLKKRMQQYGIASGYANSSISTLDRSQYQSLPLNGTRRVTVQFGRMKIVVPWKESDQTVGQLADAALLRYKKARGMANEDRIHVHRLECASDGGILDMDDVLEEVFDLNYDQILAITDEANGGSTTPTYSQIQKQQHHYAQPLPYARKFDGGPSTPIASAFGSVTVNHQAHRAASPYNVGFARSNSRDFAPQPTHSKERRDSVVEVSSFDQIPQSGLRVSTPKPSRQSEDVIDGKPMNQPILRSSLRTEASGSRTEEATPVKQSRVTLSPEVEKKLAEQDERKSERRKHYDKNPGRFARGSDRKSRITDALLDARDRIADQLESQNPAEETKSQMIRVKIDQGPMPGTSLVTFPPIPEKSENEKQLGIEVNAVFDESSELPGTSEPTKLSSVQIMKIEDGGRIAKDGRIRVGDCIVAIDGKPVDQMSIIRVRASISDLAAVTSRPVTLIINRSLESFLEQESSAKPIQSALQQANTQYIGHTTVVELIKSSNGFGFTVTGRETAKGERLFYIGTVKPYGVALGHLKSGDRLLEINGTPTGQWTQSEIVEKLKETMVGEKIKFLVSRVSQSAIMSTSASSENKENEETLKVVEEEKIPQKLPLPALMTPPVPKDTPALSPSGASRFEIVIPFINGSSSAGLGVSLKARVSKKSNGSKVDCGIFIKNVMHGGAAFKEGGLRVDDRIVGVEDIDLEPLDNREAQAALAKKLKEVGMISSNVRLTISRYNECNPGQISRDLSRITVDASSPSPSSRMSSHTAPDSLLPSPATRGTSSSGADSSHSRQSSASSAVPAVPARLTERDSIVSDGTSRNDESELPDSADPFNREGLGRKSLSEKRGMGAAADPQHIKLFQDIKHQRQNSAPTSSTQKRSKSQPRSSSQRNYRSPMKLVDLPTTAAASASTNSQNLDDSDMLNRRSQSMESINRPVESILRGTGQIPTGSSSKVQFMQAASPDQHPFPPGAALLRLKNEESRSRDKSRRKSMGNPFSAMRNFFGFGSKSRDASPEKTPTESVQLRSVERPKSIIDERNNGSSERAPPPLPPHQSQRRGSGGNVFVDYGEPYGLIPQYPHNTTSGYESYADSELYDRYAAHRYHPRGGPIIDEDEYIYRQQSTSGNSPINTSSYVNYGLPASNAYHVGSRIPPQTSSGSISKTSGAMRRVYPAEYDEDVAYHQQIPQQSTRYQQGSGSGRGNADYHHMFNSWFAYTGGGAVGAAPVIKSSYGSSPVRIAAASAIERGESFVVEPVSGSSASATDRRGRSTSSGAVASGSSSTGFQYAAKEKYADARSGKFNGGSTRLFIPRHGGGLSAAAFATNFGGEAYETRGGGAGGSPSQYRRRDQGPPHRFPQY
